Assay results reported in article doi:10.1101/2024.02.05.578895.
Results are given in words; binding and its absence hold for the method and conditions named. Binding seen in cells or lysates may run through a third protein. Some results given as binding are weak or reduced against the parent protein; the word gives no strength.

Protein sequences, listed by entry. Tags and fused reporters are not part of them.
UniProt P04198: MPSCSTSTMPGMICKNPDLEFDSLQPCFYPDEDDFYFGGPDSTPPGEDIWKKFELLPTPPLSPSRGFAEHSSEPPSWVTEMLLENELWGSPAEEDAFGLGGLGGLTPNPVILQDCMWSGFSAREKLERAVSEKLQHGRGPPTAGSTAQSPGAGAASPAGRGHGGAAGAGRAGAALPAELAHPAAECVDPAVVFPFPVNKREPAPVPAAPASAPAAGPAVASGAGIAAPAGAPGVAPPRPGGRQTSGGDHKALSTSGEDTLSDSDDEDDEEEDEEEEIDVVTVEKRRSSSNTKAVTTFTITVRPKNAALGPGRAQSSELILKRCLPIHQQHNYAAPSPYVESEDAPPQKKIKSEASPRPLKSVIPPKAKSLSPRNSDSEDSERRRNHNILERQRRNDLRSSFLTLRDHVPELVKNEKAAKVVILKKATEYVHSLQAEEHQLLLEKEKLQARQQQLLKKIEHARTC
UniProt Q92841: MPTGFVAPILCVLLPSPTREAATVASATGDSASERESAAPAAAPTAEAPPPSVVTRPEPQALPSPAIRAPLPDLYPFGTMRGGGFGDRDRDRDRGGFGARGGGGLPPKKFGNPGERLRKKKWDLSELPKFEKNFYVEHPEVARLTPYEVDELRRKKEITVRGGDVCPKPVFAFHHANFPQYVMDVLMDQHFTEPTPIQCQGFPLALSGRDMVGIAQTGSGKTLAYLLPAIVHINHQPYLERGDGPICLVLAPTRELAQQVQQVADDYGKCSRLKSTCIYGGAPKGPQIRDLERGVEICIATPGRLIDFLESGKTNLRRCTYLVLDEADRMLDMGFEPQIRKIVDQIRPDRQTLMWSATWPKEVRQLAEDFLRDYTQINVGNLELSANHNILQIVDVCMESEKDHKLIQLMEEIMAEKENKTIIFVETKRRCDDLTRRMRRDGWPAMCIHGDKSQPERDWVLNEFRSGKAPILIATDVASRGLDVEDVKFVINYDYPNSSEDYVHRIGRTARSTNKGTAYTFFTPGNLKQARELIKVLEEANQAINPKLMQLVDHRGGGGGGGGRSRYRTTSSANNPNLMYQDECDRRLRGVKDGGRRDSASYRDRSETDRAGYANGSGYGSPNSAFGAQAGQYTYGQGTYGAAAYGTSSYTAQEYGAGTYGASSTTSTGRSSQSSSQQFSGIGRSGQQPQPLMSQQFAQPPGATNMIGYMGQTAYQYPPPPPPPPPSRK
UniProt P17844: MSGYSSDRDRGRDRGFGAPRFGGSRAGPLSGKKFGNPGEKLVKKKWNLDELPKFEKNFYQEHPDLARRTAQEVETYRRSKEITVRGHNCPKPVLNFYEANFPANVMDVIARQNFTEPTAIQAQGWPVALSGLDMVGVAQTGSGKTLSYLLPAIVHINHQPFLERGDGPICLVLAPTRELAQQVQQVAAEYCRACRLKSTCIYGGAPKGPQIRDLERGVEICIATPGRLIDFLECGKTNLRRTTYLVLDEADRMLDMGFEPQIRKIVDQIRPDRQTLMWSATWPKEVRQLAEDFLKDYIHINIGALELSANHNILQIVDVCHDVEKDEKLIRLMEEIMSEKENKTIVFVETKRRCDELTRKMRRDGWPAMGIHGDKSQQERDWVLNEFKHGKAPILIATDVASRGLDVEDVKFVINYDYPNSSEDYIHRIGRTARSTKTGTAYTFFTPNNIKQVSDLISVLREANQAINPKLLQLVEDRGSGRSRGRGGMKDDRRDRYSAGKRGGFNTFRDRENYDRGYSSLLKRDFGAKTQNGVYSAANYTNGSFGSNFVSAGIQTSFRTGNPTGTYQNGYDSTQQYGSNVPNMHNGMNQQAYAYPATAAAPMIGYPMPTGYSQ

Target: MYCN oncoprotein (human (endogenous in SK-N-BE(2))) (UniProt P04198)
Experiment: co-IP

Row | Substance | binding
1 | DEAD box ATP-dependent RNA helicase DDX17 (from UniProt Q92841 1-729) | binds
2 | DEAD box helicase DDX5 (from UniProt P17844 1-614) | no binding
